Publication PMC12431355
Results are given in words; binding and its absence hold for the method and conditions named. In cells and extracts the contact can be indirect. Some binding calls cover weakened binding; strength is not graded here.

Molecular target: T1, ETS2 (UniProt P15036)
T1 sequence: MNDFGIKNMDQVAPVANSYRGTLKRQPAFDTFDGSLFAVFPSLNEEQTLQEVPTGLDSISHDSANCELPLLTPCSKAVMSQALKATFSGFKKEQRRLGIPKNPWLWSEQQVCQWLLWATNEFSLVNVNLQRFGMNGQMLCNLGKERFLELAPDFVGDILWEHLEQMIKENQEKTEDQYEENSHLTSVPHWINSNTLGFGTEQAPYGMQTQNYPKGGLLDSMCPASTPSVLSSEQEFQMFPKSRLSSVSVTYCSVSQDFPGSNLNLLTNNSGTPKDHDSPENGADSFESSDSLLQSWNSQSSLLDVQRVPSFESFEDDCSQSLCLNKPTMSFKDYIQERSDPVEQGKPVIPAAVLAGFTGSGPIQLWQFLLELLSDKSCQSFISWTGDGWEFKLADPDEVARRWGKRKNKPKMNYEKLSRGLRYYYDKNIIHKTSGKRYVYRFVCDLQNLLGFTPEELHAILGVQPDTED
Assay: co-IP; Cal-62 and TPC-1 cells transfected with ETS2 overexpression plasmid or empty vector; lysed 48 h later in IP lysis solution with protease inhibitor; lysate incubated with anti-ETS2 antibody overnight at 4°C; Protein A/G agarose beads; washed three times with cold lysis buffer

binding: binds
B1: ZMYND11 (protein, UniProt Q15326 1-602)
chain: MARLTKRRQADTKAIQHLWAAIEIIRNQKQIANIDRITKYMSRVHGMHPKETTRQLSLAVKDGLIVETLTVGCKGSKAGIEQEGYWLPGDEIDWETENHDWYCFECHLPGEVLICDLCFRVYHSKCLSDEFRLRDSSSPWQCPVCRSIKKKNTNKQEMGTYLRFIVSRMKERAIDLNKKGKDNKHPMYRRLVHSAVDVPTIQEKVNEGKYRSYEEFKADAQLLLHNTVIFYGADSEQADIARMLYKDTCHELDELQLCKNCFYLSNARPDNWFCYPCIPNHELVWAKMKGFGFWPAKVMQKEDNQVDVRFFGHHHQRAWIPSENIQDITVNIHRLHVKRSMGWKKACDELELHQRFLREGRFWKSKNEDRGEEEAESSISSTSNEQLKVTQEPRAKKGRRNQSVEPKKEEPEPETEAVSSSQEIPTMPQPIEKVSVSTQTKKLSASSPRMLHRSTQTTNDGVCQSMCHDKYTKIFNDFKDRMKSDHKRETERVVREALEKLRSEMEEEKRQAVNKAVANMQGEMDRKCKQVKEKCKEEFVEEIKKLATQHKQLISQTKKKQWCYNCEEEAMYHCCWNTSYCSIKCQQEHWHAEHKRTCRRKR
